Results from ChEMBL document CHEMBL2380236, “Core refinement toward permeable β-secretase (BACE-1) inhibitors with low hERG activity” (J Med Chem, 2013).

Test: physchem

SMILES	chromatographic logD
COc1cccc(-c2cccc(C3(C)CSCC(N)=N3)c2)c1 (configuration not stated)	2.2
COc1cccc(-c2cccc(C3(c4ccncc4)N=C(N)CS3)c2)c1 (configuration not stated)	3.3
